## Percent effect of library compounds

Sequences of proteins named here, by UniProt entry; tags and fusion partners are left off. Residues count along the entry.
UniProt P9WPC5, whole entry: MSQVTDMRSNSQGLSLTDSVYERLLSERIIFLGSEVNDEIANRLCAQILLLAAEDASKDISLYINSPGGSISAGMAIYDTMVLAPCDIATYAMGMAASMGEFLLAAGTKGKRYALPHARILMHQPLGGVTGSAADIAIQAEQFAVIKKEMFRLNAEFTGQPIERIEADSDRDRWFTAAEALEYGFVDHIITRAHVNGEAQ
UniProt P9WPC3, whole entry partner: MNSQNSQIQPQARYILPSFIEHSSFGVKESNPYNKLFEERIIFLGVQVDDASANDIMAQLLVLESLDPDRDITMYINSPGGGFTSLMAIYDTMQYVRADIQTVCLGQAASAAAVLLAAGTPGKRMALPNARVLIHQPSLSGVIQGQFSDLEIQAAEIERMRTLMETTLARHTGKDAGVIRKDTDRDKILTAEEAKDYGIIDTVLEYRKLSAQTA
UniProt Q4DA54, 1-478: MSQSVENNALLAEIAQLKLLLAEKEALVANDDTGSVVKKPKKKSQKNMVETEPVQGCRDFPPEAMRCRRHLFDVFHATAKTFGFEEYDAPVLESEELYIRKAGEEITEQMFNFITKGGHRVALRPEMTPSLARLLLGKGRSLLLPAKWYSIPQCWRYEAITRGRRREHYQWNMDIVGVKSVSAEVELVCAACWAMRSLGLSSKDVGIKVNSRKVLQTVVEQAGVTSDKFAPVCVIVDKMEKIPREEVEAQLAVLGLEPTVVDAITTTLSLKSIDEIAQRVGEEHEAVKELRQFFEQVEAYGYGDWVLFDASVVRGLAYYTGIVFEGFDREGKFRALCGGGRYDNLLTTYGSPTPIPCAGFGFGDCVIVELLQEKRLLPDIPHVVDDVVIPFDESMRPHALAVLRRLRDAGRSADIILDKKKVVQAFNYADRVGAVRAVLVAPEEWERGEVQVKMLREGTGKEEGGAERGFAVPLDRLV
UniProt P9WNZ1, whole entry: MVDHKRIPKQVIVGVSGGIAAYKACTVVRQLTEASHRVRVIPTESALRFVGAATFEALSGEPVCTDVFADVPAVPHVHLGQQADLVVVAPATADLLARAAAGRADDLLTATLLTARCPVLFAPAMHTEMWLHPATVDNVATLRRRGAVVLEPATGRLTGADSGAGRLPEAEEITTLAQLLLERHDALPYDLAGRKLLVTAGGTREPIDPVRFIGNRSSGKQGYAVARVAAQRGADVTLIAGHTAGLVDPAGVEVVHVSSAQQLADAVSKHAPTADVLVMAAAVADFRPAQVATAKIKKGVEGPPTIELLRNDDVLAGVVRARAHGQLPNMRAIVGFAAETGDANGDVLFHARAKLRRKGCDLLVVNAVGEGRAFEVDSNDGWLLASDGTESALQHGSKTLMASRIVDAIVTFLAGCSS

Values are the deposited “Percent Effect”, in %.
How 0% and 100% were set is not recorded. Most values in the screen are low, and negative values occur.
Compounds were drawn at random from those tested, without regard to their results.
Two or more numbers in one place are separate tests of the same structure; such repeats can differ widely.
A dash means the value is not listed here; it may have been measured.

ClpP1P2: 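Protease assay of ClpP1P2, read by the AMC dye that it sets free. Target: ClpP1P2, Mycobacterium tuberculosis (UniProt P9WPC5 and UniProt P9WPC3). Tested at 50 µM. Direction is inferred from only a few compounds that gave an IC50; most scored high, so higher reads as stronger inhibition. Most other retested compounds had strongly negative values. Size under these conditions: about 69,000 compounds, about 10 of them at 50% or above in at least one test.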
Toxoplasma: 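Assay of Toxoplasma gondii numbers, read through their beta-galactosidase reporter with a colour substrate. Tested at 10 µM. Higher reads as fewer parasites (inferred from which compounds were picked for retests). Of about 67,000 compounds tested this way, about 260 (0.38%) reached 50% or more in at least one test.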
Leishmania in macrophages: 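Cell assay of Leishmania donovani living inside macrophages; the read-out is not stated. Compounds at 30 µM. The record gives no direction; compounds that gave an IC50 in retests scored well above the rest, so higher reads as stronger inhibition. About 69,000 compounds were tested under these conditions; 1.5% (about 1,000) showed 50% or more at least once.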
TcHisRS: 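Histidine-tRNA ligase, Trypanosoma cruzi CL Brener (UniProt Q4DA54). Enzyme assay of histidyl-tRNA synthetase; the read-out is not stated. Tested at 30 µM. Higher reads as stronger inhibition (inferred: compounds with an IC50 in retests scored well above the rest). Size under these conditions: about 69,000 compounds, about 31 of them at 50% or above in at least one test.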
CoaBC: 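Coenzyme A biosynthesis protein CoaBC, Mycobacterium tuberculosis (UniProt P9WNZ1). Enzyme assay of CoaBC with a phosphate dye (Biomol Green) read at 650 nm. Compounds at 30 µM. Direction is inferred from only a few compounds that gave an IC50; most scored high, so higher reads as stronger inhibition. Most strong results did not repeat in a second test. About 67,000 compounds were tested under these conditions; 0.06% (about 40) showed 50% or more at least once.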

structure	ClpP1P2	Toxoplasma	Leishmania in macrophages	TcHisRS	CoaBC
CN(C)Cc1cc(=O)n2c(n1)CN(S(=O)(=O)C1CC1)CCC2	-2.615%	-	-	3.911%	-2.061%
Cc1nccc(C(=O)N2CCCN(Cc3cnn(C(C)C)c3)CC2)n1	0.4854%	-0.1727%	-5.031%	5.882%	3.106%
O=S1(=O)CCC(n2nc(COc3ccccc3)nc2-c2cnccn2)C1 (stereo not given)	-14.35%	-11.68%	4.983%	3.518%	1.327%
Cc1cc(CN2CCN(C(=O)NCc3cccs3)CC2)no1	-24.98%	-8.935%	6.128%	4.611%	12.27%
OC[C@@H]1CCCN1c1ccc(-c2nc(CCc3ccccc3)no2)cn1	-10.6%	-10.57%	-5.892%	8.163%	4.365%
COC(=O)CN1CCC(C(F)(F)F)CC1	0.2439%	14.05%	16.05%	8.333%	-6.214%
Cc1ccc(S(C)(=O)=O)cc1C(=O)NS(=O)(=O)c1cccs1	3.465%	-3.459%	-32.24%	7.937%	8.884%
CCN1CC2(CCCCN2C(=O)c2ccn(C)n2)CC1=O (stereo not given)	-10.47%	-6.842%	20.52%	11.65%	1.018%
O=C1OC2(CCN(CC3CCCO3)CC2)CN1CCc1ccccc1 (stereo not given)	2.004%	1.281%	14.8%	11.11%	1.84%
COc1ccc(-n2cnc(Cl)c2CO)cc1	-4.015%	-1.906%	22.33%	12.12%	7.407%
O=C(CCn1ccc2ccc(Cl)cc21)NCc1ccc(C(=O)O)cc1	-7.749%	1.438%	18.72% & 21.03%	3.659%	0.7595%
CC[C@@H](C)[C@H](NC(=O)Cn1ccc2c(Cl)cccc21)C(=O)O	0.05817%	14.65%	7.093%	11.11%	1.263%
CNC(=O)c1nn(C)cc1NC(=O)C(C)n1ncc(Cl)c1C (stereo not given)	-8.102%	-3.159%	1.121%	2.212%	5.607%
CN(C)c1cc(C2CCCN2)ccn1 (stereo not given)	1.745%	28.07%	18.33%	7.576%	-7.891%
CN(CC1CCCCO1)C(=O)c1ccnc(OC2CCC2)c1 (stereo not given)	-14.4%	0.3462%	1.242%	-2.5%	5.757%
COCCN1CCC2(CC1)CC(NCc1cncn1C)c1ccccc12 (stereo not given)	12.18%	-	-	7.595%	-
CC1N(C)C(=O)COC12CCN(Cc1nccs1)CC2 (stereo not given)	4.26%	-	-	8.04%	-3.716%
Cn1cc(CN2CCCC3(CCN(C(=O)c4cnccn4)C3)C2)cn1 (stereo not given)	15.57%	-	-	2.956%	-5.076%
CSc1cc2c(cc1NC(=O)NCc1ccco1)OCCO2	5.367%	-4.33%	-25%	-1.087%	2.621%
CCc1ccc(CN(C)C(=O)C(c2ccccc2F)N(C)C)nc1 (stereo not given)	-6.407%	-51.37%	19.33%	5.6%	11.9%
CN(C)C(c1ccccn1)[C@H]1CC[C@H](CNC(=O)C2CCCC2)CC1 (stereo not given in full)	-0.6391%	16.27%	21.07%	6.202%	14.36%
CCn1cc(CN2CCCN(C(=O)C3=NN(C)C(=O)CC3)CC2)cn1	10.39%	0.2953%	-4.824%	1.887%	-1.282%
Cc1cccc(CN2CCC3(CCCN(Cc4cnn(C)c4)C3)C2)n1 (stereo not given)	4.298%	-	-	3.518%	4.579%
CCCOC(=O)N1CCCn2nc(C(=O)Nc3ccccc3)cc2C1	-5.219%	-11.06%	-3.459%	3.093%	-7.075%
COc1ccc(CNC(=O)CCc2nnc3ccccn3c2=O)cc1	5.831%	-11.37%	6.413%	3.96%	1.446%
Cc1nc(CNC(=O)NCC2(C)CCCc3ccccc32)no1 (stereo not given)	-8.54%	14.7%	-5.474%	9.375%	4.833%
CCc1ccsc1C(=O)N1CCN(C(=O)CC(F)(F)F)CC1	-0.4441%	-4.672%	15.42%	3.422%	1.581%
COCc1cccc(C(=O)N2CCCN(C(=O)OCC(C)C)CC2)c1	-13.86%	7.537%	4.54%	4.167%	2.801%
Cc1ccc(CN(CCCN(C)C)Cc2cnc(C)n2C)o1.O=C(O)CC(O)(CC(=O)O)C(=O)O	-	-3.328%	21.47%	-	-
COc1cccc(NC(=O)CCCc2nc(C(C)C)no2)c1	-18.24%	-1.142%	21.57%	1.327%	3.037%
CCC1=N[C@@]2(CC[C@@H]3CN(Cc4ccccc4C)C[C@@H]32)C(=O)N1C	0.4401%	-	-	3.175%	6.667%

Some entries from above, unchanged:

structure	ClpP1P2	Toxoplasma	Leishmania in macrophages	TcHisRS	CoaBC
CCc1ccc(CN(C)C(=O)C(c2ccccc2F)N(C)C)nc1 (stereo not given)	-6.407%	-51.37%	19.33%	5.6%	11.9%
O=C(CCn1ccc2ccc(Cl)cc21)NCc1ccc(C(=O)O)cc1	-7.749%	1.438%	18.72% & 21.03%	3.659%	0.7595%
CC[C@@H](C)[C@H](NC(=O)Cn1ccc2c(Cl)cccc21)C(=O)O	0.05817%	14.65%	7.093%	11.11%	1.263%
CSc1cc2c(cc1NC(=O)NCc1ccco1)OCCO2	5.367%	-4.33%	-25%	-1.087%	2.621%

From ChEMBL document CHEMBL3988442, “University of Dundee, Small-Polar-MMV Screening Library” (2021).